Results published in article PMC4383067.
No constants are given. Whether binding was seen depends on the method and setting. Some entries that bind do so weakly or less than the wild type.

Columns and labels:
[1] = target: Amyloid fibrils of full-length human PrP (human) (UniProt P04156); assay: immunogold electron microscopy; both purified
[2] = target: Full-length human PrP (monomeric, recombinant) (human) (UniProt P04156); assay: cross-linking; both purified
[3] = target: Amyloid fibrils of full-length human PrP (human) (UniProt P04156); assay: co-sedimentation; both purified

Measured: binding

Full-length human acetylcholinesterase (dimeric, recombinant) (from UniProt P22303 32-614) (enzyme)
binds: all assays above
